From patent publication US20170042969A1
No constants are given. Whether binding was seen depends on the method and setting. For part of these data: Binding seen in cells or lysates may run through a third protein. Some results given as binding are weak or reduced against the parent protein; the word gives no strength.

Columns and labels:
[1] = target: T1, ornithine decarboxylase (ODC) (UniProt P11926); test: two-hybrid screening and immunocoprecipitation
T1 sequence (looked up): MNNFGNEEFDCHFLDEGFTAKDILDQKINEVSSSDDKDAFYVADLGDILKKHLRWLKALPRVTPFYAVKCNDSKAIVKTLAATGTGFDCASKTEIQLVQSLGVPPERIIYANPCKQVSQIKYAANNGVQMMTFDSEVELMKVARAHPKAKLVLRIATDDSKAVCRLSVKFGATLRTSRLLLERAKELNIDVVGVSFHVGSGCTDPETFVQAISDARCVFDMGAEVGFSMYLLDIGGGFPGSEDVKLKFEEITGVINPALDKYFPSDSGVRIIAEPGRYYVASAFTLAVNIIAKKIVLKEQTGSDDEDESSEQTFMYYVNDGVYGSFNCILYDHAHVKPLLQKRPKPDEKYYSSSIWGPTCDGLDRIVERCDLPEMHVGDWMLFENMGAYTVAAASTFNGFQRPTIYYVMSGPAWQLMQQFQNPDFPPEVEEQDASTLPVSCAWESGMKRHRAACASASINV

[2] = target: T1, ornithine decarboxylase (ODC); test: two-hybrid screening, immunoprecipitation and functional studies
[3] = target: T1, ornithine decarboxylase (ODC); test: functional studies in oocytes, HEK293 cells and with purified ODC

Measured: binding

B1: hRS1-Reg (regulatory domain of human RS1, amino acids 16-98 of hRS1), wildtype (protein, not shown: small tags and cut ends)
chain: SSGQSPDVGNPMSLARSVSASVCPIKPSDSDRIEPKAVKALKASAEFQLNSEKKEHLSLQDLSDHASSADHAPTDQSPAMPMQ
binds: all assays above
